Test results from patent publication US20220049002A1.
No constants are given. Whether binding was seen depends on the method and setting. Some results given as binding are weak or reduced against the parent protein; the word gives no strength.

T1: Canine IL4R (extracellular domains produced by 293 cells; Examples 16-19) (canine)
T1 sequence (chain, biotinylated): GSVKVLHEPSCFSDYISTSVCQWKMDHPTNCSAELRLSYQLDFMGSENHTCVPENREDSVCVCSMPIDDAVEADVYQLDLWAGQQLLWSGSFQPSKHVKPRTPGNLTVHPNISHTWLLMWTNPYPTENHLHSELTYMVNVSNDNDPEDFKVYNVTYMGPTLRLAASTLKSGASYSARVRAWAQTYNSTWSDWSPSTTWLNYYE

B1: M3 mouse monoclonal antibody (anti-canine IL4R) (antibody, V domains shown)
VH: QVQLKESGPGLVAPSQSLSITCTVSGFSLSRYSVHWVRQPPGKGLEWLGMIWGGGSTDYNSVFKSRLSISKDNSKSQVFLKMNSLQTDDTAMYYCARTYRGYALDYWGQGTSVTVSS
VL: DIQMTQTTSSLSASLGDRVTISCRASQDISNYLNWYQQKPDGTVKLLIYYTSRLQSGVPSRFSGSGSGTDYCLTISNLEQEDIATYFCQQANTLPLTFGSGTKLELK
B2: M5 mouse monoclonal antibody (anti-canine IL4R) (antibody, V domains shown)
VH: B1 VH
VL: B1 VL
B3: M8 mouse monoclonal antibody (anti-canine IL4R) (antibody, V domains shown)
VH: QVQLQQSGPELVKPGALVKISCKASGYTFTSYDINWVKQRPGQGLEWIGWIYPGDGSTKYNEKFKGKATLTADKSSSTAYMQLSSLTSEDSAVYFCARSSFVVWGAGTTVTVSS
VL: DIQMTQSSSYLSVSLGGRVTITCKASDPINNWLAWYQQKPGNAPRLLISGATSLETGVPSRISGSGSGKDYSLSITSLQTEDIATYYCHQYWSIPYTFGGGTKLEIK
B4: M9 mouse monoclonal antibody (anti-canine IL4R) (antibody, V domains shown)
VH: DVQLVESGGGLVQPGGSRKLSCAASGFTFSSFGMHWVRQAPEKGLEWVAYIRSDSSTIYYADTVKGRFTISRDNPKNTLFLQMTSLRSEDTAMYYCARSGYYGSFSLTYWGQGTLVTVSA
VL: EIVLTQSPTTMAASPGEKITITCSASSSVSSNYLHWYQQKPGFSPKLLIYRTSNLPSGVPARFFGSGSGTSYSLTIGTMEAEDVATYYCQQGSGMLTFGAGTKLELK

Each binder was assayed against T1, Canine IL4R (extracellular domains produced by 293 cells; Examples 16-19) (canine) (assay: neutralization (canine IL4-blocking) ELISA).
With B1 the binding was “binds”.
With B2 the binding was “binds”.
For B3, the binding was “binds”.
For B4, the binding was “binds”.
